Legend:
[1] = tested on: β2M locus in human primary CD4+ T cells; experiment: Peptide screen: Cas9-mediated KO at the β2M locus, flow cytometry; type: cell-based; settings: S. pyogenes Cas9 (one NLS) RNP co-incubated with peptide at 5 μM or 10 μM; compared with INF7-TAT
Experimental: Primary human CD4+ T cells were isolated from leukopacks (purchased from Stemcell Tech or Allcells Inc) PBMCs using negative isolation (Stem Cell Technologies). Cells were either used fresh or stored frozen at −80° C. Cells were suspended in growth media (Xvivo-15+5% FBS+55 μM β-mercaptoethanol (βME)+10 μM N-acetyl cysteine) at 1.0×10^6 cells/mL. Cells were stimulated for 48 hours with CD3/CD28 Dynabeads (Gibco CAT #11131D) at 1 bead/cell ratio, 200 U/mL human IL-2 (Proleukin), 5 ng/ml IL-7 (Peptrotech CAT #200-07), 5 ng/ml IL-15 (Peptrotech CAT #200-15). […] When Cas9 RNP delivery complexes were ready, cells were centrifuged at 300×g, resuspended in OptiMEM and placed in 96-well round-bottom culture plates, with 200×10^3 cells/well. […]
FIG. 3. Screening of peptides 1-37 for Cas9-mediated KO at the β2M locus in human primary CD4+ T cells, as measured by flow cytometry. prA-Cas9-1×NLS with OKT3 was combined with peptides at either 5 μM or 10 μM concentration. […]
FIG. 5A and FIG. 5B. (A) Screening of peptides #40-60 (as well as select comparator peptides from the screen of “parent peptides” #1-37) for Cas9-mediated KO at the ß2M locus in human primary CD4+ T cells, as measured by flow cytometry. prA-Cas9-1×NLS was combined with anti-CD3 antibody OKT3 and applied to cells with peptides at 10 µM concentration. […]

[2] = tested on: erythrocyte-specific BCL11a enhancer locus in CD34+ HSPCs; experiment: Cas9-mediated NHEJ at BCL11a enhancer locus, deep sequencing; type: cell-based, human; settings: Cas9-3×NLS RNP, peptide 5 μM or 10 μM, no targeting antibody

“KLFEAIEGFIENGWEGMIDGWYGYGRKKRRQRR [peptide 19, the G1K variant of INF7-TAT]” was tested, and the “Cas9-mediated KO at the β2M locus (editing efficiency)” value [1] was “edits T cells much more efficiently than INF7-TAT” and the “Cas9-mediated NHEJ at BCL11a enhancer locus (editing efficiency)” value [2] was “edits CD34+ HSPCs much more efficiently than INF7-TAT”.

Reference: patent US20250025576A1, “CELL DELIVERY COMPOSITIONS AND METHODS OF USE THEREOF” (The Regents of the University of California, priority 2021, published 2025)
